Experimental data taken from the supplement of paper PMC10849652.
The other results are listed elsewhere or left out.

Chains of the proteins cited; added tags and fusions are not shown. Lines headed by an entry give the natural chain unless they say otherwise; changes in a name come on top.
UniProt P39059: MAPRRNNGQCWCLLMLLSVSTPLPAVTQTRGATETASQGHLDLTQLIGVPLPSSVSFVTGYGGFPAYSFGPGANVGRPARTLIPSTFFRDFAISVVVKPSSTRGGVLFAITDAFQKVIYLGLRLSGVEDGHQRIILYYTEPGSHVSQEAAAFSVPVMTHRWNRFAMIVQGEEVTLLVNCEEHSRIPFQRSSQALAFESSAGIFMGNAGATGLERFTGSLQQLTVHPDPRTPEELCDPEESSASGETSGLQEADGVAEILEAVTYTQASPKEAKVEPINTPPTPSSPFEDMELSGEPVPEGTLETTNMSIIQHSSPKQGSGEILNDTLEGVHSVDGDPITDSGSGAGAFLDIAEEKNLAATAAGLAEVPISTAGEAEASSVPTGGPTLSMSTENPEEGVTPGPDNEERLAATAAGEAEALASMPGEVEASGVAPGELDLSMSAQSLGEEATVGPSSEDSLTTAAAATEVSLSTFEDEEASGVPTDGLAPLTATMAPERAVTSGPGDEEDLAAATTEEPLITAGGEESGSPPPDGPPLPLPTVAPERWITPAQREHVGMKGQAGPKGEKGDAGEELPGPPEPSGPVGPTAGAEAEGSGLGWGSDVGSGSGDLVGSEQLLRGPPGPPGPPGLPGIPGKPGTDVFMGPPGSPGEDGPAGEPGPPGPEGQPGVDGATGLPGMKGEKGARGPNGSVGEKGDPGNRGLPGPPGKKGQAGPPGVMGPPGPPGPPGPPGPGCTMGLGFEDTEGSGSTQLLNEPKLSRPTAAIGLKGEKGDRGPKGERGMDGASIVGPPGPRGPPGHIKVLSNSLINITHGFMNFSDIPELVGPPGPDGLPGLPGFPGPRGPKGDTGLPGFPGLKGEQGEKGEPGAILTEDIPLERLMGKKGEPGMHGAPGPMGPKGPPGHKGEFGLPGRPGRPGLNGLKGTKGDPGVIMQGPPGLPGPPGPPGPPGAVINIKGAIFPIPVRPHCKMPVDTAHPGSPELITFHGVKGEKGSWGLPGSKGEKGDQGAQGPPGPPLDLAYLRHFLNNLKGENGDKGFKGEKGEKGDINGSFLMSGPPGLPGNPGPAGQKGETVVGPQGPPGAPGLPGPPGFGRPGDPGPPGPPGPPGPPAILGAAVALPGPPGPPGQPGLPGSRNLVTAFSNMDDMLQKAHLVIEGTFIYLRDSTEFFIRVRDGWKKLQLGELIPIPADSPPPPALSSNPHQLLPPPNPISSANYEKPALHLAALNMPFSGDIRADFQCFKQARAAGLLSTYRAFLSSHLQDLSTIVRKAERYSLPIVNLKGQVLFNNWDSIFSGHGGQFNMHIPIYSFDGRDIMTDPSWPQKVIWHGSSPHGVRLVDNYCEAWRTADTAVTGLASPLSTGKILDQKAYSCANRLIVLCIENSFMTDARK
UniProt P51911: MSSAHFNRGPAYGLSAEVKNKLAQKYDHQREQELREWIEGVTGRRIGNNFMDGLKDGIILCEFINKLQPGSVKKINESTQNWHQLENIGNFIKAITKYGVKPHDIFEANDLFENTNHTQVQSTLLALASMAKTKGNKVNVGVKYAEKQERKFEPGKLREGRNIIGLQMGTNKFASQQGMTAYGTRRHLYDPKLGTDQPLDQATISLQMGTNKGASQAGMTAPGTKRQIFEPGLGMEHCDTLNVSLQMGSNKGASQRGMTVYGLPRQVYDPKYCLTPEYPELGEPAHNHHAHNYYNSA
UniProt Q9UIV1, whole entry, looked up: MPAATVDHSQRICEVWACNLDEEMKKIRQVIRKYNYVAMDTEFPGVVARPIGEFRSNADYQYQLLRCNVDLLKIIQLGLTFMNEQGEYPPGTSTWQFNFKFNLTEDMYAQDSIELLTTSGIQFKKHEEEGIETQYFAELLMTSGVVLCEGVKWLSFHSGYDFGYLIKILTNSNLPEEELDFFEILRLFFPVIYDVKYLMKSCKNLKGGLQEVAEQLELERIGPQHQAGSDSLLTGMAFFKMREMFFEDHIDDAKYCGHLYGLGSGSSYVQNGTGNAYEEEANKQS
UniProt O43405: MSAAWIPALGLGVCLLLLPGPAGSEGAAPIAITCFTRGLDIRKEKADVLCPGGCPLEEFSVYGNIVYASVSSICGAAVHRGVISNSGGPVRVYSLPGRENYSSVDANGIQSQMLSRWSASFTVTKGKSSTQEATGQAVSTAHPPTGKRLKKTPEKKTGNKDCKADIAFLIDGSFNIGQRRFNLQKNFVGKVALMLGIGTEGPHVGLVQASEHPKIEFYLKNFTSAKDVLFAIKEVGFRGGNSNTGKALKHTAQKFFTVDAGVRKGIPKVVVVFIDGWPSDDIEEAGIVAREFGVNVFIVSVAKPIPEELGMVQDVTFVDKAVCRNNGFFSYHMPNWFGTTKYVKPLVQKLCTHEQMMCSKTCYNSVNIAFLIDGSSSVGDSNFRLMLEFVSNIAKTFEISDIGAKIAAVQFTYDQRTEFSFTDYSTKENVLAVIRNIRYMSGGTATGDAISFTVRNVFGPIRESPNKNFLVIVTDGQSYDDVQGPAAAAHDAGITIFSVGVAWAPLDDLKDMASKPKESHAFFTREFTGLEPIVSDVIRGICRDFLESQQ
UniProt Q86X83, whole entry, looked up: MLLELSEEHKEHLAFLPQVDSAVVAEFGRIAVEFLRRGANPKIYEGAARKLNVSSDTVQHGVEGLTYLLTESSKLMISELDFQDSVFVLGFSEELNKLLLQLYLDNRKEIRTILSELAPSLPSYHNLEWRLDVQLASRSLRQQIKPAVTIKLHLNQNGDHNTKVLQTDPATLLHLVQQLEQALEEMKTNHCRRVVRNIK
UniProt Q14019: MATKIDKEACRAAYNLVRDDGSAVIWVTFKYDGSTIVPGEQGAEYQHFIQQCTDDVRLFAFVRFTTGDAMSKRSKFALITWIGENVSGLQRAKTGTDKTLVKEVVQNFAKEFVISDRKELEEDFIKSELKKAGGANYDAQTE
UniProt Q96KP4: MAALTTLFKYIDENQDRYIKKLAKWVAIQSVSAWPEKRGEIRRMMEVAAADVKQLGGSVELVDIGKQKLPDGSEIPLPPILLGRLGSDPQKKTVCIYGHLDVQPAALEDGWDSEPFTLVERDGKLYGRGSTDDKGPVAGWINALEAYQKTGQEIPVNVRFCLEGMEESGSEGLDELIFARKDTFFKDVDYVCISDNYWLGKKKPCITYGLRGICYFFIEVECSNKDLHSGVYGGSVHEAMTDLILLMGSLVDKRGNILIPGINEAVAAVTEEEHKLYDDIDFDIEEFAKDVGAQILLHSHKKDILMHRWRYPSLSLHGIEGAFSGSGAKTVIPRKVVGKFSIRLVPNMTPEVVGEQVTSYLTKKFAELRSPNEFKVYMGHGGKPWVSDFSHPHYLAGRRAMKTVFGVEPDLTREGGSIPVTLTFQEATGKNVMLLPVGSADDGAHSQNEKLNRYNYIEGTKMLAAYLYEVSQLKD
UniProt Q8WTW3: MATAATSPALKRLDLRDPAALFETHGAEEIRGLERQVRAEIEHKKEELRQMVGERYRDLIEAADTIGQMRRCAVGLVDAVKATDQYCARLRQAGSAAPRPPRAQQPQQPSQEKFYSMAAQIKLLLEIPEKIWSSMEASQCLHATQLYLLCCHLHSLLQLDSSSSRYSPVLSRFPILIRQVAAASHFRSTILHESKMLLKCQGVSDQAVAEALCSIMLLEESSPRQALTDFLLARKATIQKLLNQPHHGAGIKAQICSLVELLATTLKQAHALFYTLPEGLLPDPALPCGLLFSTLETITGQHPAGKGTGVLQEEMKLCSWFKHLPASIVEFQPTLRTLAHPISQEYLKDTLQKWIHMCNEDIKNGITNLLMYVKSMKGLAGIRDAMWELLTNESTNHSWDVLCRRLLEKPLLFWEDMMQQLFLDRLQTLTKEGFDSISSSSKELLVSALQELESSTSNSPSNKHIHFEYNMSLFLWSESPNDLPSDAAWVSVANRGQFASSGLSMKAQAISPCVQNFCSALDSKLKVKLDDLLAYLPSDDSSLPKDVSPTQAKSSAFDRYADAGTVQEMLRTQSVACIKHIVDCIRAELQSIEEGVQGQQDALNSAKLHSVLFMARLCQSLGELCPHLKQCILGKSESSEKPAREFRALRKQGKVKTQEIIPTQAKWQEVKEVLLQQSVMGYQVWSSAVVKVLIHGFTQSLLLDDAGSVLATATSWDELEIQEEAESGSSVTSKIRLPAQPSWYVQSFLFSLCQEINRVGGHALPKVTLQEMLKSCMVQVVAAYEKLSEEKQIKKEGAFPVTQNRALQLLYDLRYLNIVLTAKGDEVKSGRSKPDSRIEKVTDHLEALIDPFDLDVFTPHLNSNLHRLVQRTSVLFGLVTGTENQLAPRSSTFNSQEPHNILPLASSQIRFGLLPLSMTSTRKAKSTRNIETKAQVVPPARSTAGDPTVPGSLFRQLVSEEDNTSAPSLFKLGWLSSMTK
UniProt Q9BSW2: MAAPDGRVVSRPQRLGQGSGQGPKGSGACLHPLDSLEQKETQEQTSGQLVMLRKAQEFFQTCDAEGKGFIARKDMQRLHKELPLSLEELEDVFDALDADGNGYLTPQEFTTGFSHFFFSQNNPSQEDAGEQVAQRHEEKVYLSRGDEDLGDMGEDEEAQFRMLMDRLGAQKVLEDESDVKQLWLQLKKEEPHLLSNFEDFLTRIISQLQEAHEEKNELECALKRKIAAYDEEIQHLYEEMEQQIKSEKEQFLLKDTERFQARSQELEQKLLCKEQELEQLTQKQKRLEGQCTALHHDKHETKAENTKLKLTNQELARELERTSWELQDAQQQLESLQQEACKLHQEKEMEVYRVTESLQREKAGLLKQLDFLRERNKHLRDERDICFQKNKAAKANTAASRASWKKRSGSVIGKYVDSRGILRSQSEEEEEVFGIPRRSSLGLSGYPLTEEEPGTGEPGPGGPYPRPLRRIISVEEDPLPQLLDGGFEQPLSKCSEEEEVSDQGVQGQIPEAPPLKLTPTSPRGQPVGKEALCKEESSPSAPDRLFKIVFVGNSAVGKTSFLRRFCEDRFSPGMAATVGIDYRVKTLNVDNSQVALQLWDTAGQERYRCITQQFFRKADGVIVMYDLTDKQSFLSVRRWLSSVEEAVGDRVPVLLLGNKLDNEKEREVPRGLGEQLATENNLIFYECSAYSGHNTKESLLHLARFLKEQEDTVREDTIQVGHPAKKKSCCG
UniProt O14548: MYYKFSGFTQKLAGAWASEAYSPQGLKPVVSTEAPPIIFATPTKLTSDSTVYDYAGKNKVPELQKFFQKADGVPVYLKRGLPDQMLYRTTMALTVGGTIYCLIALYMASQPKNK
UniProt Q9UKF6: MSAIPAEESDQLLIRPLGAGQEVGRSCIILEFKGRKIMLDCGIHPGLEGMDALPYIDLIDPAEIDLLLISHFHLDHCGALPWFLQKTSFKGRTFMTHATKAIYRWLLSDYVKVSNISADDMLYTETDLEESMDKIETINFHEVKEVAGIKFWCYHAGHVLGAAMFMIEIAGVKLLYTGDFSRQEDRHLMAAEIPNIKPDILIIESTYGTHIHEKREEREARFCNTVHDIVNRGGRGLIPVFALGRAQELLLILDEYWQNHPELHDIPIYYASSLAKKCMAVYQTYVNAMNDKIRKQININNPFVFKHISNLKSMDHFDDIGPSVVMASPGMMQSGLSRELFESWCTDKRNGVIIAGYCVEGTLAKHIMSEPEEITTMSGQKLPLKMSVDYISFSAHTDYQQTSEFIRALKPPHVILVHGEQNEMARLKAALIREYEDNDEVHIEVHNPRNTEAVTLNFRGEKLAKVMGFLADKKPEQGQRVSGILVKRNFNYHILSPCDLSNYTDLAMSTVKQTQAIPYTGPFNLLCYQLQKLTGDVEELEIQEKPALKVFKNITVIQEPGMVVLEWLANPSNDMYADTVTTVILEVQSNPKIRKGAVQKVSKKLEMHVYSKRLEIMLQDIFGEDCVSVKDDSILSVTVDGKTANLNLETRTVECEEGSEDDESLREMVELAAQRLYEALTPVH
UniProt O75208: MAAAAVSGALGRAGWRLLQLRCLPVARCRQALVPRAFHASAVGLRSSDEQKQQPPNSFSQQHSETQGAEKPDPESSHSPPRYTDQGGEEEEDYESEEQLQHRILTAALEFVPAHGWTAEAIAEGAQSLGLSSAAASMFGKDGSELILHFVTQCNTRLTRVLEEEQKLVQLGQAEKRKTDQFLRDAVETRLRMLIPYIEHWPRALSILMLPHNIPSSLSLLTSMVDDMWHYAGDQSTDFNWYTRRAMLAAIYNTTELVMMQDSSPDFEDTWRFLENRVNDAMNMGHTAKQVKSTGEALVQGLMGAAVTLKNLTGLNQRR
UniProt Q9GZQ3, whole entry, looked up: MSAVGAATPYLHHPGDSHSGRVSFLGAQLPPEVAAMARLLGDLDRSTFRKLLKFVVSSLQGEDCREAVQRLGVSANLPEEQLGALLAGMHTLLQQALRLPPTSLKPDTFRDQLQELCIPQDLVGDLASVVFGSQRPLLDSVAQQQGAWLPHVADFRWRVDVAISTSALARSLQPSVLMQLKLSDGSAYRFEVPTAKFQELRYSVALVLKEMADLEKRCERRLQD
UniProt P78560: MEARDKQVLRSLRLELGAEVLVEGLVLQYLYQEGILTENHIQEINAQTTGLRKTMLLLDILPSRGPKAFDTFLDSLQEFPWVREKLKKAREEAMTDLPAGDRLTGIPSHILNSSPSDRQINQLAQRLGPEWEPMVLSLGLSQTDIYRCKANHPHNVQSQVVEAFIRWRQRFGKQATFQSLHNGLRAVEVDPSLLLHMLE

Key:
Assay in all cases: log2 fold change, soluble protein after heating vs DMSO (PISA); higher = thermal stabilisation; K562 lysate, 10 uM; active = over 0.2 and 3.5 SD of the protein, either way, in both replicates (recomputed)
vemurafenib = compound: CCCS(=O)(=O)Nc1ccc(F)c(C(=O)c2c[nH]c3ncc(-c4ccc(Cl)cc4)cc23)c1F [vemurafenib]
Method in brief: (§1)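 Log-two fold change in thermal stability relative to solvent controls is reported from duplicates. For each sample, crude K562 extract from dounce-homogenised pellets in PBS pH 7.4 with 1 mM MgCl2, at 1 mg/mL protein, was treated with 10 μM compound for 30 min. Aliquots heated for 3 min across 48°C-58°C were pooled, brought to 0.5% NP-40 at 4°C and cleared at 21,000xg for 90 min. The supernatant was quantified by TMTpro 16plex LC-MS/MS with channel sums equalised.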

[1] = compound: CCCS(=O)(=O)Nc1ccc(F)c(C(=O)c2c[nH]c3ncc(Cl)cc23)c1F
Method in brief: as §1

barasertib = compound: CCN(CCCOc1ccc2c(Nc3cc(CC(=O)Nc4cccc(F)c4)[nH]n3)ncnc2c1)CCOP(=O)(O)O [barasertib]
Method in brief: as §1

[2] = compound: CC[C@@H]1C(=O)N(C)c2cnc(Nc3ccc(C(=O)NC4CCN(C)CC4)cc3OC)nc2N1C1CCCC1
Method in brief: as §1

volasertib = compound: CC[C@@H]1C(=O)N(C)c2cnc(Nc3ccc(C(=O)N[C@H]4CC[C@H](N5CCN(CC6CC6)CC5)CC4)cc3OC)nc2N1C(C)C [volasertib]
Method in brief: as §1

[3] = compound: CCn1c(C(=O)N(C2CC2)C2CC2)cc2c3c(ncn3C)c(Nc3cc(C)n(C)n3)nc21
Method in brief: as §1

[4] = compound: CCn1cc(-c2ccnc3[nH]c(-c4cccc(CN(C)C)c4)cc23)c(-c2ccc(NC(=O)N(C)C)cc2)n1
Method in brief: as §1

[5] = compound: CN1CCC(CNc2ccc3ncc(-c4cccc(OC(F)(F)F)c4)n3n2)CC1
Method in brief: as §1

saracatinib = compound: CN1CCN(CCOc2cc(OC3CCOCC3)c3c(Nc4c(Cl)ccc5c4OCO5)ncnc3c2)CC1 [saracatinib]
Method in brief: as §1

sotrastaurin = compound: CN1CCN(c2nc(C3=C(c4c[nH]c5ccccc45)C(=O)NC3=O)c3ccccc3n2)CC1 [sotrastaurin]
Method in brief: as §1

alvocidib = compound: CN1CC[C@H](c2c(O)cc(O)c3c(=O)cc(-c4ccccc4Cl)oc23)[C@H](O)C1 [alvocidib]
Method in brief: as §1

Tubastatin A = compound: CN1CCc2c(c3ccccc3n2Cc2ccc(C(=O)NO)cc2)C1 [Tubastatin A]
Method in brief: as §1

[6] = compound: CNC(=O)C1=CC=CC=C1NC2=NC(=NC=C2Cl)NC3=C(C=C(C=C3)N4CCOCC4)OC
Method in brief: as §1

defactinib = compound: CNC(=O)c1ccc(Nc2ncc(C(F)(F)F)c(NCc3nccnc3N(C)S(C)(=O)=O)n2)cc1 [defactinib]
Method in brief: as §1

[7] = compound: CNc1nc(-c2ccc3c(N)n[nH]c3c2)cc(N2C[C@@H](C(=O)NC3CCCCC3)CC[C@H]2C)n1
Method in brief: as §1

encorafenib = compound: COC(=O)N[C@@H](C)CNc1nccc(-c2cn(C(C)C)nc2-c2cc(Cl)cc(NS(C)(=O)=O)c2F)n1 [encorafenib]
Method in brief: as §1

[8] = compound: COC(=O)[C@H](CCSC)NC(=O)C1=C(C=C(C=C1)NC[C@H](CS)N)C2=CC=CC=C2
Method in brief: as §1

alisertib = compound: COc1cc(Nc2ncc3c(n2)-c2ccc(Cl)cc2C(c2c(F)cccc2OC)=NC3)ccc1C(=O)O [alisertib]
Method in brief: as §1

[9] = compound: COc1cc2nc(-c3cc(F)ccc3O)nc(N[C@@H]3CNC[C@H]3C(C)(C)O)c2cc1OC
Method in brief: as §1

gefitinib = compound: COc1cc2ncnc(Nc3ccc(F)c(Cl)c3)c2cc1OCCCN1CCOCC1 [gefitinib]
Method in brief: as §1

Measured: log2 fold change

COL15A1 (UniProt P39059)
inactive: vemurafenib -0.074 | [1] 0.08 | barasertib -0.022 | [2] 0.106 | volasertib -0.003 | [3] -0.023 | [4] -0.031 | [5] 0.078 | saracatinib -0.034 | sotrastaurin -0.029 | alvocidib -0.036 | Tubastatin A 0.031 | [6] 0.017 | defactinib 0.027 | [7] 0.037 | encorafenib 0.017 | [8] 0.005 | alisertib -0.063 | [9] 0.016 | gefitinib 0.038

CNN1 (UniProt P51911)
inactive: vemurafenib -0.007 | [1] -0.082 | barasertib -0.004 | [2] 0.175 | volasertib -0.085 | [3] -0.101 | [4] 0.034 | [5] 0.025 | saracatinib 0.009 | sotrastaurin -0.003 | alvocidib -0.017 | Tubastatin A -0.023 | [6] 0.007 | defactinib 0.029 | [7] 0.035 | encorafenib 0.08 | [8] -0.12 | alisertib -0.028 | [9] 0.082 | gefitinib -0.023

CNOT7 (UniProt Q9UIV1)
inactive: vemurafenib -0.052 | [1] 0.021 | barasertib -0.031 | [2] 0.004 | volasertib -0.012 | [3] 0.043 | [4] -0.034 | [5] -0.007 | saracatinib 0.077 | sotrastaurin -0.032 | alvocidib 0.007 | Tubastatin A -0.04 | [6] 0.008 | defactinib 0.012 | [7] -0.016 | encorafenib -0.003 | [8] 0.034 | alisertib 0.004 | [9] 0.001 | gefitinib -0.016

COCH (UniProt O43405)
inactive: vemurafenib 0.117 | [1] -0.021 | barasertib 0.01 | [2] 0.098 | volasertib 0.039 | [3] -0.035 | [4] 0.01 | [5] 0.028 | saracatinib 0.064 | sotrastaurin 0.023 | alvocidib -0.018 | Tubastatin A 0.051 | [6] 0.164 | defactinib -0.012 | [7] 0.059 | encorafenib -0.012 | [8] 0.092 | alisertib -0.069 | [9] 0.082 | gefitinib 0.074

COG4 (UniProt Q9H9E3)
inactive: vemurafenib 0.018 | [1] 0.047 | barasertib 0.085 | [2] -0.048 | volasertib -0.088 | [3] 0.024 | [4] 0.005 | [5] -0.125 | saracatinib 0.055 | sotrastaurin 0.05 | alvocidib 0.028 | Tubastatin A -0.131 | [6] 0.025 | defactinib 0.029 | [7] -0.003 | encorafenib 0.079 | [8] 0.011 | alisertib 0.016 | [9] 0.022 | gefitinib 0.009

COMMD2 (UniProt Q86X83)
inactive: vemurafenib 0.065 | [1] 0.09 | barasertib 0.081 | [2] -0.017 | volasertib -0.063 | [3] 0.025 | [4] -0.009 | [5] -0.007 | saracatinib 0.048 | sotrastaurin 0.021 | alvocidib -0.037 | Tubastatin A -0.033 | [6] 0.046 | defactinib -0.06 | [7] -0.016 | encorafenib 0.013 | [8] -0.048 | alisertib -0.041 | [9] 0.023 | gefitinib -0.015

COTL1 (UniProt Q14019)
inactive: vemurafenib -0.002 | [1] -0.017 | barasertib -0.068 | [2] 0.019 | volasertib 0.02 | [3] 0.027 | [5] -0.076 | saracatinib -0.019 | sotrastaurin -0.045 | alvocidib 0.021 | Tubastatin A 0.004 | [6] -0.021 | defactinib -0.04 | [7] -0.008 | encorafenib -0.033 | [8] -0.029 | alisertib -0.009 | [9] -0.001 | gefitinib -0.002
active: [4] 0.37

CNDP2 (UniProt Q96KP4)
inactive: vemurafenib 0.01 | [1] 0.023 | barasertib -0.01 | [2] 0.11 | volasertib 0.041 | [3] -0.032 | saracatinib 0.01 | sotrastaurin 0.013 | alvocidib -0.11 | Tubastatin A 0.039 | [6] 0.003 | defactinib 0.005 | [7] 0.1 | encorafenib -0.02 | [8] 0.002 | alisertib -0.031 | [9] 0.047 | gefitinib 0.013
active: [4] -0.343 | [5] 0.278

COG1 (UniProt Q8WTW3)
inactive: vemurafenib -0.159 | [1] 0.023 | barasertib 0.008 | [2] -0.006 | volasertib -0.067 | [3] -0.032 | [4] -0.114 | [5] -0.076 | saracatinib 0.055 | sotrastaurin 0.047 | alvocidib 0.014 | Tubastatin A -0.107 | [6] 0.026 | defactinib 0.037 | [7] 0.017 | encorafenib -0.015 | [8] 0.038 | alisertib -0.013 | [9] -0.027 | gefitinib 0.049

CRACR2A isoform 2 (UniProt Q9BSW2)
inactive: vemurafenib -0.106 | [1] -0.057 | barasertib -0.105 | [2] 0.053 | volasertib -0.062 | [3] 0.005 | [4] 0.008 | [5] -0.029 | saracatinib 0.017 | sotrastaurin 0.059 | alvocidib 0.013 | Tubastatin A -0.039 | [6] -0.026 | defactinib -0.024 | [7] -0.029 | encorafenib 0.035 | [8] 0.056 | alisertib 0.029 | [9] 0.055 | gefitinib 0.009

COX7A2L (UniProt O14548)
inactive: vemurafenib -0.056 | [1] 0.028 | barasertib 0.03 | [2] -0.043 | volasertib 0.039 | [3] 0.005 | [4] -0.128 | [5] 0.045 | saracatinib -0.036 | sotrastaurin -0.011 | alvocidib 0 | Tubastatin A 0.025 | [6] 0.014 | defactinib 0.132 | [7] 0.02 | encorafenib -0.005 | [8] -0.015 | alisertib 0.005 | [9] -0.014 | gefitinib -0.048

CPSF3 (UniProt Q9UKF6)
inactive: vemurafenib -0.066 | [1] -0.014 | barasertib 0.004 | [2] -0.044 | volasertib -0.004 | [3] 0.03 | [4] -0.013 | [5] 0.005 | saracatinib -0.004 | sotrastaurin 0.023 | alvocidib 0.029 | Tubastatin A -0.051 | [6] 0.008 | defactinib 0.009 | [7] -0.075 | encorafenib 0.078 | [8] -0.055 | alisertib 0.009 | [9] -0.006 | gefitinib -0.005

CNOT11 (UniProt Q9UKZ1)
inactive: vemurafenib 0.004 | [1] 0.022 | barasertib 0.034 | [2] 0.009 | volasertib -0.018 | [3] -0.022 | [4] -0.031 | [5] 0.005 | saracatinib 0.006 | sotrastaurin 0.059 | alvocidib 0.002 | Tubastatin A -0.025 | [6] 0.012 | defactinib 0.001 | [7] 0.071 | encorafenib 0.041 | [8] 0.009 | alisertib -0.012 | [9] 0.014 | gefitinib 0.014

COQ9 (UniProt O75208)
active: barasertib 0.275
inactive: vemurafenib -0.023 | [1] 0.126 | [2] 0 | volasertib -0.012 | [3] 0.002 | [4] 0.015 | [5] -0.066 | saracatinib -0.001 | sotrastaurin -0.101 | alvocidib 0.002 | Tubastatin A -0.041 | [6] -0.035 | defactinib 0.023 | [7] 0.136 | encorafenib -0.021 | [8] 0.024 | alisertib 0.026 | [9] 0.025 | gefitinib -0.012

COMMD5 (UniProt Q9GZQ3)
inactive: vemurafenib 0.02 | [1] -0.003 | barasertib 0.154 | [2] -0.268 | volasertib 0.011 | [3] 0.008 | [4] -0.133 | [5] 0.021 | saracatinib 0.027 | sotrastaurin 0.01 | alvocidib -0.026 | Tubastatin A 0.04 | [6] 0.043 | defactinib 0.018 | [7] 0.026 | encorafenib 0.162 | [8] -0.125 | alisertib -0.02 | [9] 0.01 | gefitinib -0.044

CRADD (UniProt P78560)
inactive: vemurafenib -0.02 | [1] 0.055 | barasertib 0.112 | [2] -0.022 | volasertib -0.023 | [3] -0.018 | [4] 0.012 | [5] -0.079 | saracatinib 0.03 | sotrastaurin 0.029 | alvocidib 0.093 | Tubastatin A -0.094 | [6] -0.061 | defactinib 0.096 | [7] 0.062 | encorafenib 0.042 | [8] 0.064 | alisertib -0.039 | [9] -0.041 | gefitinib 0.022
